Results deposited as PubChem BioAssay AID1053208 (Peter MacCallum Cancer Centre, 2014).

- Test: 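Genes whose silencing cuts survival of bone tumour cells only with doxorubicin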 (primary screen)
- System: mouse osteosarcoma cells, early-passage culture from an engineered mouse model of fibroblastic bone tumour
- Knock-down reagent: siRNA pool against mouse genes, 40 nM
- Duration: about 120 h (48 h before drug, then 72 h with drug)
- Conditions: doxorubicin 100 nM for 72 h, roughly 30-40% inhibitory dose
- Measurement: 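Luminescent ATP signal taken as viability with or without 100 nM doxorubicin for 72 h; mean of two wells set against non-targeting siRNA and turned into robust z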
- Reading the numbers: viability z-score with doxorubicin: higher = more viable cells under doxorubicin; viability z-score without drug: higher = more viable cells with knock-down alone
- Hit rule: 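a pool counts as active when its viability z-score with doxorubicin is -2 or below and its z-score without drug lies between -2 and 2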
Shown is one part, drawn at random, of about 17,000 reagents tested. Over the whole deposit, 788 (4.7%) were called active. 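Calls rest on z-score classes alone; an extra cut-off of viability at most 70% of control was not applied to them.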 A number with no mark means an inactive call. Not all columns of the deposit are shown.

| Gene | combined z-score class | viability z-score with doxorubicin | viability z-score without drug |
| --- | --- | --- | --- |
| Or9g10 | no change with or without drug | -0.45 | -0.51 |
| Rnf11 | no change with or without drug | -0.22 | 0.17 |
| Rnf44 | no change with or without drug | 0.56 | -0.17 |
| Mcrip2 | no change with or without drug | -1.12 | -0.67 |
| Mgat2 | no change with or without drug | -0.79 | -0.51 |
| Zscan2 | no change with or without drug | -0.56 | 1.18 |
| Runx1 | high cell count without drug only | 0.45 | 2.19 |
| Stard10 | no change with or without drug | -1.12 | 0.34 |
| Slc5a9 | no change with or without drug | 0.22 | 0.17 |
| Hibch | no change with or without drug | 1.24 | 0.51 |
| Pnpla6 | no change with or without drug | 0.22 | -1.18 |
| Galp | no change with or without drug | 0 | -0.17 |
| Or4x11 | no change with or without drug | -0.45 | -1.85 |
| Gypc | no change with or without drug | 0 | -1.01 |
| Anks4b | low cell count with doxorubicin only (active) | -2.36 | -0.17 |
| Wwp2 | no change with or without drug | -0.45 | -0.84 |
| Myo3a | no change with or without drug | 1.69 | 0.34 |
| Fam168b | no change with or without drug | -1.35 | -1.35 |
| Or10ag60 | no change with or without drug | 0.45 | 0 |
| Tgfbr2 | no change with or without drug | 0.45 | -0.84 |
| Tbl3 | no change with or without drug | -1.91 | -1.18 |
| Gfer | no change with or without drug | 0.9 | 1.18 |
| Gm16938 | no change with or without drug | 0.9 | -0.51 |
| Carm1 | low cell count with doxorubicin only (active) | -2.14 | 1.52 |
| Ppp1r16b | no change with or without drug | 0.45 | -0.17 |
| Hamp | no change with or without drug | 0.56 | -0.34 |
| Lce3c | no change with or without drug | 0.79 | 0.51 |
| Adam11 | no change with or without drug | -0.56 | 1.85 |
| Slc30a7 | low cell count with doxorubicin only (active) | -2.81 | -1.18 |
| Spag5 | no change with or without drug | -0.67 | 0.34 |
| Acads | no change with or without drug | 0.22 | -0.17 |
| Proc | no change with or without drug | 0.67 | 0.17 |
| L2hgdh | no change with or without drug | -0.11 | -0.84 |
| Tmem18 | no change with or without drug | 0.67 | -0.51 |

Part of the list above, set out differently.
Gene	combined z-score class	viability z-score with doxorubicin	viability z-score without drug
Mgat2	no change with or without drug	-0.79	-0.51
Zscan2	no change with or without drug	-0.56	1.18
Runx1	high cell count without drug only	0.45	2.19
Stard10	no change with or without drug	-1.12	0.34
